Test [1] has as its target T1, BCAT2 (human (endogenous in PCa cells)) (UniProt O15382).
T1 sequence: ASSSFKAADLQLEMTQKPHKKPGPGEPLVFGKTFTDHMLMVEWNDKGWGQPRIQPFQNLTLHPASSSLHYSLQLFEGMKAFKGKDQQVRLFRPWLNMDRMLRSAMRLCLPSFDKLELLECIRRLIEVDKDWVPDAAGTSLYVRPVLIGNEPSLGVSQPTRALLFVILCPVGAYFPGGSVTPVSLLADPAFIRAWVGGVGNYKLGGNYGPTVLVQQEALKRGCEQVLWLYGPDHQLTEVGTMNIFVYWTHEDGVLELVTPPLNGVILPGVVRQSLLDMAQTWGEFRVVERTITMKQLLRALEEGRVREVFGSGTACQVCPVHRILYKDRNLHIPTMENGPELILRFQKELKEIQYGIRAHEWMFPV
Kind of test: co-IP; Co-IP kit (Epizyme); lysate incubated with antibody and added to protein A/G agarose resin for 1 h at room temperature; IgG as negative control, input as positive control; Western blot. A general note: In western blotting, separated proteins are transferred to a membrane and probed.

Amino acid sequences for entries named in this document (tags omitted).
UniProt Q15365: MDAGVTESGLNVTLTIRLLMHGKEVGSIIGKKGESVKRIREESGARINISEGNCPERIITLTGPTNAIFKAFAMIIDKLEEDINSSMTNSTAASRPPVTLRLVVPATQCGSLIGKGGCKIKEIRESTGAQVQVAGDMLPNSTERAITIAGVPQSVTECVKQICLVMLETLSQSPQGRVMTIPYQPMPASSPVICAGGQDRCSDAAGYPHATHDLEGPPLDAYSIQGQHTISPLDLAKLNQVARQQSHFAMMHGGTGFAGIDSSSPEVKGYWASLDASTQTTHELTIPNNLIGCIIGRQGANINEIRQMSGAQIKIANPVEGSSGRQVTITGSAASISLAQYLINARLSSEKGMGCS

The next test deals with T2, BCAT2-WT (UniProt O15382).
T2 sequence: T1 sequence
Description: co-IP; cells transfected with BCAT2-WT or point-mutation plasmids; Co-IP and Western blot.

These are yes or no findings as the source states them, for the method shown. In cells and extracts the contact can be indirect. Some results given as binding are weak or reduced against the parent protein; the word gives no strength.

Take PCBP1 (from UniProt Q15365 1-356): the binding result (in test [1]; in the test with BCAT2-WT) was “binds” throughout.

The values are drawn from paper PMC12022009.
